This is an account of results in doi:10.1101/2020.03.02.973859.

Protein sequences, listed by entry. Tags and fused reporters are not part of them.
UniProt P11881: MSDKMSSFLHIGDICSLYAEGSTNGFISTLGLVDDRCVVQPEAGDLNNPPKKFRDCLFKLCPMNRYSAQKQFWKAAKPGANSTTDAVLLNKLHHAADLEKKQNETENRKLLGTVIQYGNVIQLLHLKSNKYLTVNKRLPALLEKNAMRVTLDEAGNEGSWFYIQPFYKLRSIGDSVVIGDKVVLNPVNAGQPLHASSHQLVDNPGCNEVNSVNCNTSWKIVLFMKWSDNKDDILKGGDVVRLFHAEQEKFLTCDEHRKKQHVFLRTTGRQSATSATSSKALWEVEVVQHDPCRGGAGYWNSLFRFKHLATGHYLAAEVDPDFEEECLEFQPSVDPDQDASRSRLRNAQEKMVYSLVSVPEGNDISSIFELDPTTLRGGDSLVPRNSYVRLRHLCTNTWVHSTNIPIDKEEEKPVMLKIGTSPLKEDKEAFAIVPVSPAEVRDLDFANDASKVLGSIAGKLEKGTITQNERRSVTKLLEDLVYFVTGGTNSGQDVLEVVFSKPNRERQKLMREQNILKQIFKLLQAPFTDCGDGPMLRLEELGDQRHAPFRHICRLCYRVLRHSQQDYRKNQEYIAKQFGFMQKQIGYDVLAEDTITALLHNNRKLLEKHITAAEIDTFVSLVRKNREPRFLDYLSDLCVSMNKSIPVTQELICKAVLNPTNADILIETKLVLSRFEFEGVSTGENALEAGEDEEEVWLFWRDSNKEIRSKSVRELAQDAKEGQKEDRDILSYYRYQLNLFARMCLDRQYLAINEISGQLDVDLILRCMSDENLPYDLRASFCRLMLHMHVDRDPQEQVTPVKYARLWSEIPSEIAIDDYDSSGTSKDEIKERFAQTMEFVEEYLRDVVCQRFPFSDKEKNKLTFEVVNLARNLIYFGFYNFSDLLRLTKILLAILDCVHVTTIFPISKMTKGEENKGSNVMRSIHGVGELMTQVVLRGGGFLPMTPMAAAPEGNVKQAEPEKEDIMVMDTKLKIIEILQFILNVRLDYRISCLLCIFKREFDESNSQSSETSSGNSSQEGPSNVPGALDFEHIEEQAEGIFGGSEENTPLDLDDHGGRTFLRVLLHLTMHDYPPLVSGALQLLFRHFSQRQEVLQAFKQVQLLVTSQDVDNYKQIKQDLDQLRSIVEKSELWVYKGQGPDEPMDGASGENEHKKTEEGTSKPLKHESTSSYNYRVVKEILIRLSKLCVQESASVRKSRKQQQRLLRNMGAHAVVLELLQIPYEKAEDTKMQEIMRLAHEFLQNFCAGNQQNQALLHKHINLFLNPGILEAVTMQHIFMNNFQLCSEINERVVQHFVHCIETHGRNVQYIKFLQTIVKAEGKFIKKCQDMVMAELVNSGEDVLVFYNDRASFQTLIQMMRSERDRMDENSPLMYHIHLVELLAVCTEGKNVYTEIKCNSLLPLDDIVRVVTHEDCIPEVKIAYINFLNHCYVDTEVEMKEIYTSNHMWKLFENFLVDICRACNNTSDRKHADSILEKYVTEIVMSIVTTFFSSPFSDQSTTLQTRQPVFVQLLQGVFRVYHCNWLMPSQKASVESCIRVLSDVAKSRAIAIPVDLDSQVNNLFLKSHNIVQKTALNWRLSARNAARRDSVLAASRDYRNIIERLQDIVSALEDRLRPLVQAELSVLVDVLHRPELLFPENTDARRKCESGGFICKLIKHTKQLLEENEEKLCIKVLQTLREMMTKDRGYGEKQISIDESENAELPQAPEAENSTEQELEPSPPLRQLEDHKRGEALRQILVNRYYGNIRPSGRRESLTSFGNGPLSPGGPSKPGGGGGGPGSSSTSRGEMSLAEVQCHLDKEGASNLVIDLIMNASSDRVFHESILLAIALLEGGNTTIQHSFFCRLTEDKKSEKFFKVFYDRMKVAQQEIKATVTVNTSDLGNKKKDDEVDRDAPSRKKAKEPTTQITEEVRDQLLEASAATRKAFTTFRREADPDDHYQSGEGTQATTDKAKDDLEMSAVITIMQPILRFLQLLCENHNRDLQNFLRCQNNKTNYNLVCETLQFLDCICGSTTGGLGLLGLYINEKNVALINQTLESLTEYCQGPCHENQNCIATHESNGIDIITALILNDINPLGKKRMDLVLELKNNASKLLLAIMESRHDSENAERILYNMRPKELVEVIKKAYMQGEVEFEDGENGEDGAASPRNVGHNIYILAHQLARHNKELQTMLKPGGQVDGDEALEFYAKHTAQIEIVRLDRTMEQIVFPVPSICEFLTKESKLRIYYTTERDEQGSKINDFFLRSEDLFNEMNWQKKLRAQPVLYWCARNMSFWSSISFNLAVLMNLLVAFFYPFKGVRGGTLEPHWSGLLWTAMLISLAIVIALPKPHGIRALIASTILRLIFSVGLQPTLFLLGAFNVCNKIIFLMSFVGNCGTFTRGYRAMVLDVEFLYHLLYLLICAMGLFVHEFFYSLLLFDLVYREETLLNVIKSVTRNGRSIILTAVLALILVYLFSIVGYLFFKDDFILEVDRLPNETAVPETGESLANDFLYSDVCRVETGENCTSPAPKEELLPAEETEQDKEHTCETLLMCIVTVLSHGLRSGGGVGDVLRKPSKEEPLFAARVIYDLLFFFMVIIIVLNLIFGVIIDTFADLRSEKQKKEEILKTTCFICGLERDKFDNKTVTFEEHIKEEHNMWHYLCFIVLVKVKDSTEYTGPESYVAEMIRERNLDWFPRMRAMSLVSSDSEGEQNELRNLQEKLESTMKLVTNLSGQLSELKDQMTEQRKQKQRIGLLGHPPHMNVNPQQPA
UniProt Q62261: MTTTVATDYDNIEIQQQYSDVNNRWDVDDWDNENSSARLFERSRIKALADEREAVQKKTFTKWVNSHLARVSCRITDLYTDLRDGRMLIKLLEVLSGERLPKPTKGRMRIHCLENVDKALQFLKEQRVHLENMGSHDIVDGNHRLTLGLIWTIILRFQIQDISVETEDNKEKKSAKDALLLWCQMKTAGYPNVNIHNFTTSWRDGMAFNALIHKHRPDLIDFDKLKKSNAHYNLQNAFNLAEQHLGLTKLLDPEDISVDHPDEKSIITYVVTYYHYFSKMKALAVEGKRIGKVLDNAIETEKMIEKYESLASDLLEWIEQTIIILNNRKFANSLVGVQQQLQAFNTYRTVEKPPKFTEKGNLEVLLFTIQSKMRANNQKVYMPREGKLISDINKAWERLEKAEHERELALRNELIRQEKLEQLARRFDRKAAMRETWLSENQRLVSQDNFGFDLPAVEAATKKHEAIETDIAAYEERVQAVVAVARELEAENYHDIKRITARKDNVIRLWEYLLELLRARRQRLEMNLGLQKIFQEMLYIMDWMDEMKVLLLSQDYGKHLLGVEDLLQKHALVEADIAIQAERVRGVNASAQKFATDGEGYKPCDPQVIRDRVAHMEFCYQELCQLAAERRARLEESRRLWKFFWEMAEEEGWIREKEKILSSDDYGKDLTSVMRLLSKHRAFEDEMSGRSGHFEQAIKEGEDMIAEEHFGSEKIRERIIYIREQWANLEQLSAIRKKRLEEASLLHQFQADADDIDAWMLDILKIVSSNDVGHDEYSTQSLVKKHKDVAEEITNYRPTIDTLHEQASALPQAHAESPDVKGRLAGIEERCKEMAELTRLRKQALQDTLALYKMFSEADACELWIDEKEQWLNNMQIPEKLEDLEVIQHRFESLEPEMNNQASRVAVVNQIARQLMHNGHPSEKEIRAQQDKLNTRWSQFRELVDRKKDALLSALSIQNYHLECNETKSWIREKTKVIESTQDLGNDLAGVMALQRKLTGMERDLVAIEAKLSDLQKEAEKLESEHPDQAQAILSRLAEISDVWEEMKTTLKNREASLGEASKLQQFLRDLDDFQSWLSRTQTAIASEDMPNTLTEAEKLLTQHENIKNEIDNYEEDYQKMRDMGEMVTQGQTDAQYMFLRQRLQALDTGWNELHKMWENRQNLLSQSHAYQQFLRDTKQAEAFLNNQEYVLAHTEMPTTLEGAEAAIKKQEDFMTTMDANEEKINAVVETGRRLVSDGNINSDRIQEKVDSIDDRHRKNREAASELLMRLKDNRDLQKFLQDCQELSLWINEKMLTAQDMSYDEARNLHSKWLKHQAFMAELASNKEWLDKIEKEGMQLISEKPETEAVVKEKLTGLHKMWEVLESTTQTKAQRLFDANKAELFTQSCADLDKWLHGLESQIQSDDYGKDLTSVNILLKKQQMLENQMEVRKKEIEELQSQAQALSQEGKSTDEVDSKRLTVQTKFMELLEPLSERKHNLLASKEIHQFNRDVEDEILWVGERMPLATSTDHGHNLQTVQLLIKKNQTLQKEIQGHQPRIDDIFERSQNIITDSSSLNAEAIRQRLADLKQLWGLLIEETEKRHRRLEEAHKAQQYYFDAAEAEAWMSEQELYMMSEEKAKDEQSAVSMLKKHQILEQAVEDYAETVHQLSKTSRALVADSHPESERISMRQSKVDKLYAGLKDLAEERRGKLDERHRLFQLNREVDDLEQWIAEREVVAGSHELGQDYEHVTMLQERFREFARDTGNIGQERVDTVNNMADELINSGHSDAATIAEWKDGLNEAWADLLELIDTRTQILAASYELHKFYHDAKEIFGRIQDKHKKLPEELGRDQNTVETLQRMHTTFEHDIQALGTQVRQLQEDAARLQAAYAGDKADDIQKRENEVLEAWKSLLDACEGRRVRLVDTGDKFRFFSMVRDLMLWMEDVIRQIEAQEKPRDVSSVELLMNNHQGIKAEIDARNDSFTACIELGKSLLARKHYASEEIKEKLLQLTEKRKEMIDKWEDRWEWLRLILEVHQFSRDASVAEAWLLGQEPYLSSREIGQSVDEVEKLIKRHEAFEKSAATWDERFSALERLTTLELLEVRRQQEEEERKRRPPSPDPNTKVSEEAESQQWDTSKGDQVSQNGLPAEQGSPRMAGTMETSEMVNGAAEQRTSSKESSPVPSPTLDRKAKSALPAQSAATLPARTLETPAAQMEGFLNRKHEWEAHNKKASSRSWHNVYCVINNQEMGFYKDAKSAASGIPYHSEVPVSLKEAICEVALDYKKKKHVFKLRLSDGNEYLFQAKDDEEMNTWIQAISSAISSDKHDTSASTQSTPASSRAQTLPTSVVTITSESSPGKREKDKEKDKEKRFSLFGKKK

These are yes or no findings as the source states them, for the method shown. Binding seen in cells or lysates may run through a third protein. Some binding calls cover weakened binding; strength is not graded here.

The test concerns the target T1, K+/Cl- co-transporter KCC2 (mouse (endogenous in mouse forebrain)) (UniProt Q91V14).
T1 sequence: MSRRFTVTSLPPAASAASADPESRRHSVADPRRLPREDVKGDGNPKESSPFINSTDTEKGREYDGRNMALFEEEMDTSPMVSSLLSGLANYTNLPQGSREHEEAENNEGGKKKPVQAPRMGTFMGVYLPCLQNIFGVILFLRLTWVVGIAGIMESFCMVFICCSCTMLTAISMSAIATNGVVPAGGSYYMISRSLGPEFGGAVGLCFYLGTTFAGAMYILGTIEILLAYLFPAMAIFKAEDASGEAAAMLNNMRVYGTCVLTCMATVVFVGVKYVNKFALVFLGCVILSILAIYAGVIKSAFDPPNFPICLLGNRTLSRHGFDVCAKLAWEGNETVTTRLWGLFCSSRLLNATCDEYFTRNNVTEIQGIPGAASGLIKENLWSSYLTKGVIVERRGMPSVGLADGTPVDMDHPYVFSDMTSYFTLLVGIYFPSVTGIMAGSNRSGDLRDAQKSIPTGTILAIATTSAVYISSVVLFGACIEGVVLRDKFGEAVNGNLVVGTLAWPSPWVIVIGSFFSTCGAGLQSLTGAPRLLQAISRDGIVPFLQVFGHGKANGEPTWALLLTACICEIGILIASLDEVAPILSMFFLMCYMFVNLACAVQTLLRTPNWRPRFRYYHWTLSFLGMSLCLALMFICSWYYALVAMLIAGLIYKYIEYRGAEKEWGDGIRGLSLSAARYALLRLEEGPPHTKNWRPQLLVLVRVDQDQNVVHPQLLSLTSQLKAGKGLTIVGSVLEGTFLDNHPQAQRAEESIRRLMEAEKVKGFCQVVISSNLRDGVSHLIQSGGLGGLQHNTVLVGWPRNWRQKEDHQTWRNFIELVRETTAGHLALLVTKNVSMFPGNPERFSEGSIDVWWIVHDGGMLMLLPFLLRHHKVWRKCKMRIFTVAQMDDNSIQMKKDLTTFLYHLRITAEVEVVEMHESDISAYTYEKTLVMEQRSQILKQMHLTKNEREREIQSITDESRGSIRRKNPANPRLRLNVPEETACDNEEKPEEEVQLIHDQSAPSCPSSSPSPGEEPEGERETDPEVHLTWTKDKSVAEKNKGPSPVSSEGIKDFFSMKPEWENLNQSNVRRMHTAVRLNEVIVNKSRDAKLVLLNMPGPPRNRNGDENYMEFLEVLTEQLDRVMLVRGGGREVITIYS
As to the kind of experiment: co-IP.

As to ANK2 (from UniProt Q8C8R3 1-3898), the binding result is “binds”.
Turning to ITPR1 (from UniProt P11881 1-2749), the binding result is given as “binds”.
For the molecule SCN2A (from UniProt B1AWN6 1-2006), the binding entry was “binds”.
As to SHANK3 (from UniProt Q4ACU6 1-1730), the binding entry is recorded as “binds”.
Regarding SPTAN1 (from UniProt P16546 1-2472), the binding entry is reported as “binds”.
For SPTBN1 (from UniProt Q62261 1-2363) the value was “binds”.

B1: NCKAP1 (protein, UniProt P28660 1-1128)
chain: MSRSVLQPSQQKLAEKLTILNDRGVGMLTRLYNIKKACGDPKAKPSYLIDKNLESAVKFIVRKFPAVETRNNNQQLAQLQKEKSEILKNLALYYFTFVDVMEFKDHVCDLLNTIDVCQVFFDITVNFDLTKNYLDLTVTYTTLMILLSRIEERKAIIGLYNYAHEMTHGASDREYPRLGQMIVDYENPLKKMMEEFVPHSKSLSDALISLQMVYPRRNLSADQWRNAQLLSLISAPSTMLNPAQSDTMPCEYLSLDAMEKWIIFGFILCHGMLNTEATALNLWKLALQSSSCLSLFRDEVFHIHKAAEDLFVNIRGYNKRINDIRECKEAAVSHAGSMHRERRKFLRSALKELATVLSDQPGLLGPKALFVFMALSFARDEIIWLLRHADNMPKKSADDFIDKHIAELIFYMEELRAHVRKYGPVMQRYYVQYLSGFDAVVLNELVQNLSVCPEDESIIMSSFVNTMTSLSVKQVEDGEVFDFRGMRLDWFRLQAYTSVSKASLSLADHRELGKMMNTIIFHTKMVDSLVEMLVETSDLSIFCFYSRAFEKMFQQCLELPSQSRYSIAFPLLCTHFMSCTHELCPEERHHIGDRSLSLCNMFLDEMAKQARNLITDICTEQCTLSDQLLPKHCAKTISQAVNKKSKKQTGKKGEPEREKPGVESMRKNRLVVTNLDKLHTALSELCFSINYVPNMAVWEHTFTPREYLTSHLEIRFTKSIVGMTMYNQATQEIAKPSELLTSVRAYMTVLQSIENYVQIDITRVFNNVLLQQTQHLDSHGEPTITSLYTNWYLETLLRQVSNGHIAYFPAMKAFVNLPTENELTFNAEEYSDISEMRSLSELLGPYGMKFLSESLMWHISSQVAELKKLVVENVDVLTQMRTSFDKPDQMAALFKRLSSVDSVLKRMTIIGVILSFRSLAQEALRDVLSYHIPFLVSSIEDFKDHIPRETDMKVAMNVYELSSAAGLPCEIDPALVVALSSQKSENISPEEEYKIACLLMVFVAVSLPTLASNVMSQYSPAIEGHCNNIHCLAKAINQIAAALFTIHKGSIEDRLKEFLALASSSLLKIGQETDKTTTRNRESVYLLLDMIVQESPFLTMDLLESCFPYVLLRNAYHAVYKQSVTSSA
For B1, the binding result was “binds”.

B2: CNTN1 (protein, UniProt P12960 21-1001)
chain: DFTWHRRYGHGVSEEDKGFGPIFEEQPINTIYPEESLEGKVSLNCRARASPFPVYKWRMNNGDVDLTNDRYSMVGGNLVINNPDKQKDAGVYYCLASNNYGMVRSTEATLSFGYLDPFPPEERPEVKVKEGKGMVLLCDPPYHFPDDLSYRWLLNEFPVFITMDKRRFVSQTNGNLYIANVESSDRGNYSCFVSSPSITKSVFSKFIPLIPIPERTTKPYPADIVVQFKDIYTMMGQNVTLECFALGNPVPDIRWRKVLEPMPSTAEISTSGAVLKIFNIQLEDEGLYECEAENIRGKDKHQARIYVQAFPEWVEHINDTEVDIGSDLYWPCIATGKPIPTIRWLKNGYSYHKGELRLYDVTFENAGMYQCIAENAYGSIYANAELKILALAPTFEMNPMKKKILAAKGGRVIIECKPKAAPKPKFSWSKGTEWLVNSSRILIWEDGSLEINNITRNDGGIYTCFAENNRGKANSTGTLVITNPTRIILAPINADITVGENATMQCAASFDPALDLTFVWSFNGYVIDFNKEITHIHYQRNFMLDANGELLIRNAQLKHAGRYTCTAQTIVDNSSASADLVVRGPPGPPGGLRIEDIRATSVALTWSRGSDNHSPISKYTIQTKTILSDDWKDAKTDPPIIEGNMESAKAVDLIPWMEYEFRVVATNTLGTGEPSIPSNRIKTDGAAPNVAPSDVGGGGGTNRELTITWAPLSREYHYGNNFGYIVAFKPFDGEEWKKVTVTNPDTGRYVHKDETMTPSTAFQVKVKAFNNKGDGPYSLVAVINSAQDAPSEAPTEVGVKVLSSSEISVHWKHVLEKIVESYQIRYWAGHDKEAAAHRVQVTSQEYSARLENLLPDTQYFIEVGACNSAGCGPSSDVIETFTRKAPPSQPPRIISSVRSGSRYIITWDHVVALSNESTVTGYKILYRPDGQHDGKLFSTHKHSIEVPIPRDGEYVVEVRAHSDGGDGVVSQVKISGVSTLS
With B2, the binding result is on record as “binds”.
